Article PMC5039417 (Biomolecules, 2016)
End groups of sequences in plain letters are not given here.

Experiment: peptide made by a vendor
Settings: whole synthesis, mass spectrometry

Sequence: LLLLTVLTV
- purity (crude or final not stated): 42%
